# Experimental data from publication PMC7819943, “Rice protein-binding microarrays: a tool to detect cis-acting elements near promoter regions in rice”.
# Amino acid sequences for entries named in this document (tags omitted).
# UniProt Q0JBA9, entry or part of it: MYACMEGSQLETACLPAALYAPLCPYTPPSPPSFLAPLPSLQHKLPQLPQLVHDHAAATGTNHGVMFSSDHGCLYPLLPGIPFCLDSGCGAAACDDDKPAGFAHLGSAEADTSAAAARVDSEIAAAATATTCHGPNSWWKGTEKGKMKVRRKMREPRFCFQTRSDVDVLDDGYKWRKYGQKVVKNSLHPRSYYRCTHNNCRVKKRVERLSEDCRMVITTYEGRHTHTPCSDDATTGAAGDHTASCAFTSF
# The other results are listed elsewhere or left out.
# Target: OsWRKY34 (Oryza sativa, UniProt Q0JBA9 1-250)
# Assay: protein-binding microarray (RPBM); PBS, 2% BSA, 51.3 ng/ul salmon testes DNA, 50 uM zinc acetate, 200 nM TF, 25 C, 1 h; high values mean tight binding
# Conditions: protein: recombinant; tags: N-terminal polyhistidine and DsRed monomer fusion (pET32a); label: CyDye5-dUTP incorporated in the synthesized complementary strand; 3' TTTTT single-stranded linker to array surface; dsDNA, one strand shown
# Procedure, shortened: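 Per-feature fluorescence intensity (arbitrary units), read on an Axon 4000B scanner, is the binding signal. Transcription factors carrying an N-terminal polyhistidine tag and DsRed fusion were expressed in E. coli BL21-CodonPlus and purified on Ni–NTA. A custom Agilent array, made double-stranded by primer extension with Cy5-dUTP and blocked with 2% BSA, was incubated with 200 nM protein in PBS, 2% BSA, salmon testes DNA and 50 µM zinc acetate at 25 °C for 1 h and then washed.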
row,Sequence,binding signal
1,GCTCTCTACTTTATTGATGCACAATACTAGTACAATTAATCGGAGTCACCTAGTGCAG,8260 fluorescence intensity (a.u.)
2,TAATTGTTACCCTGGAAGCACCTGACATTATTGCATTGGACGGAGTCACCTAGTGCAG,8230 fluorescence intensity (a.u.)
3,TTATAGCCCGCTGCTTTTCTCTCTCTTTCTTTTCATTTTACGGAGTCACCTAGTGCAG,8070 fluorescence intensity (a.u.)
4,AACAACTCTCGCGCCCTCGCCTCGCCTCGCCGCCTTTTCTCGGAGTCACCTAGTGCAG,14500 fluorescence intensity (a.u.)
5,AGACGAGCAGAGTAGTTCAGTTGTTAGTATTGTCCTCTTTCGGAGTCACCTAGTGCAG,8320 fluorescence intensity (a.u.)
6,GATGTGTTGGCTGTCTTTGTTTTTTTTTTCCTGGTTTACCCGGAGTCACCTAGTGCAG,14000 fluorescence intensity (a.u.)
7,CATTGGTTGACTCTGCACCTGCTCTTACTTGCTCGAGTGACGGAGTCACCTAGTGCAG,9360 fluorescence intensity (a.u.)
8,GTTAGTTGGCTGACTCCACACGCCTCGCCGTCTCAGTGTCCGGAGTCACCTAGTGCAG,9100 fluorescence intensity (a.u.)
9,TTGATTCTGTTAGAGTCACGCACATGACCTCGCTGGTTTTCGGAGTCACCTAGTGCAG,9710 fluorescence intensity (a.u.)
10,TTTGACAGTTTGCCAGATGCTGCCTACCAACCCACAAAACCGGAGTCACCTAGTGCAG,9230 fluorescence intensity (a.u.)
11,CTGTAGTCCGCTACTCTTATCTTTTATCTTTTTTATTTTACGGAGTCACCTAGTGCAG,8500 fluorescence intensity (a.u.)
12,AATTACTGTCATGATTTGAATTTGCAATCATTTCCTGTACCGGAGTCACCTAGTGCAG,10300 fluorescence intensity (a.u.)
13,GCCAACCCTTCCCATCAAATCTGGTCAAATCTTCTCTATCCGGAGTCACCTAGTGCAG,8100 fluorescence intensity (a.u.)
14,TGGAGGTGGAGGTCGCGGTGATTTGGTGTAGTAGTAGTAGCGGAGTCACCTAGTGCAG,8660 fluorescence intensity (a.u.)
15,GTCCCCAACTCTGACTGTCCCCACGTTTTCAGGCTGTTTGCGGAGTCACCTAGTGCAG,8340 fluorescence intensity (a.u.)
16,GCTTTACTTCAGCCTACTGTCCTGAGCACCTGATCGTACACGGAGTCACCTAGTGCAG,12100 fluorescence intensity (a.u.)
17,CAGATCGACTCGACTCGACCAGGTTCTCTCGTTTTTACTCCGGAGTCACCTAGTGCAG,9940 fluorescence intensity (a.u.)
18,TTGAACACCCGTGCCGACGGACGGCCTACTTCTTTCTCATCGGAGTCACCTAGTGCAG,9940 fluorescence intensity (a.u.)
19,CTTATACTTTATATCAATTATGTTATTTCTCATCATCGTACGGAGTCACCTAGTGCAG,8420 fluorescence intensity (a.u.)
20,TGTGTGTGTATATATATGTAGCCTGTTCGCACATCATCTTCGGAGTCACCTAGTGCAG,13600 fluorescence intensity (a.u.)
21,CACCGCCCACCTCCGCCGCCGCCAACCCGCCGCCCACGCGCGGAGTCACCTAGTGCAG,14000 fluorescence intensity (a.u.)

# Copied from the list:
# GCTTTACTTCAGCCTACTGTCCTGAGCACCTGATCGTACACGGAGTCACCTAGTGCAG – binding signal: 12100 fluorescence intensity (a.u.)
# TGGAGGTGGAGGTCGCGGTGATTTGGTGTAGTAGTAGTAGCGGAGTCACCTAGTGCAG – binding signal: 8660 fluorescence intensity (a.u.)

# More records follow.

row,Sequence,binding signal
1,GTACGTTGGTTTCCTCTTGGAGTTTTACACGAAGGAATTGCGGAGTCACCTAGTGCAG,8630 fluorescence intensity (a.u.)
2,TCTTCCCGGTTTCTCTTTCCAGCTTTCACTTTGACCTTAGCGGAGTCACCTAGTGCAG,12400 fluorescence intensity (a.u.)
3,CGCCGCGCAGCTCGCCCGGGACGTCGCCCGTCTCCAGCCGCGGAGTCACCTAGTGCAG,8070 fluorescence intensity (a.u.)
4,TGTGTAATCCTTTTACGCGTTGGCGAAAATACTTTACGATCGGAGTCACCTAGTGCAG,8360 fluorescence intensity (a.u.)
5,GGAAGGCAGGAAAGCCATCTGTTTTTTTTTTTCCTTTCACCGGAGTCACCTAGTGCAG,8870 fluorescence intensity (a.u.)
6,CCTCCTCGCCCACCACCCCTCGACCTGCGAAGCCAAACAACGGAGTCACCTAGTGCAG,8620 fluorescence intensity (a.u.)
7,GTCTATCTATCTATCTATCCATCTACTCACTCCATCCTAACGGAGTCACCTAGTGCAG,8300 fluorescence intensity (a.u.)
8,TTGCGGCTAGGGCTTTCGGGGTTTTCCTCTTTTTCAAATTCGGAGTCACCTAGTGCAG,10000 fluorescence intensity (a.u.)
9,CGACTTGTGCACCCATAACATCCTCATCTCCTGCTGCTGCCGGAGTCACCTAGTGCAG,8670 fluorescence intensity (a.u.)
10,GCCCGCGCCGTCTACCAGGACGCCGACGTCTACCTCCTCGCGGAGTCACCTAGTGCAG,8470 fluorescence intensity (a.u.)
11,TGTTTGTGAATATTTTCTGCTGGCTACTCCTAATAATAAGCGGAGTCACCTAGTGCAG,9610 fluorescence intensity (a.u.)
12,CTTTTTCTTGAGAATTTCTGTCTGAAGAAATTGCTTAGTACGGAGTCACCTAGTGCAG,15700 fluorescence intensity (a.u.)
13,TGTTCCTTCCGGCCCAGCCCACCGCGTCGCGCCTGTCCCACGGAGTCACCTAGTGCAG,9110 fluorescence intensity (a.u.)
14,TAATAGCAGGTACAACACTACTACGCAACTCATTTTCCTGCGGAGTCACCTAGTGCAG,9180 fluorescence intensity (a.u.)
15,TCTGGTTGATTGATCGATTTGGGGAATTGGGGATCTAGCTCGGAGTCACCTAGTGCAG,12000 fluorescence intensity (a.u.)
16,TTCCTCTCTGCTCGTGTGCTGCGCGCCTTCGTTGACGTCCCGGAGTCACCTAGTGCAG,9040 fluorescence intensity (a.u.)
17,GTACCACTTTCTCTATTTTTCATGTGTTTTTTAATTCTTACGGAGTCACCTAGTGCAG,9980 fluorescence intensity (a.u.)
18,GTACATGTTGCTATTTTTTGGATGGAGTGAGTATATTTTTCGGAGTCACCTAGTGCAG,9300 fluorescence intensity (a.u.)
19,CGCCGCCGTCGCCGCCGCCGCCGCATCCGCATCCGCATCCCGGAGTCACCTAGTGCAG,8200 fluorescence intensity (a.u.)
20,AGTAGCACTTAAGCCTTCCTCTCTAGCTAGCATCTCTTGTCGGAGTCACCTAGTGCAG,8400 fluorescence intensity (a.u.)
21,AACTGAGAACCCTAATTCTTGTAGGGCCATGTTCAATCGCCGGAGTCACCTAGTGCAG,9050 fluorescence intensity (a.u.)
